Assay [1] deals with T1, monkey IL-12 (macaque) (macaque) (UniProt P48091+P48095). In words: ELISA on plate-coated monkey IL-12. On the technique in general: ELISA stands for enzyme-linked immunosorbent assay.
Assay [2] addresses T1, monkey IL-12 (macaque) (macaque). Description: ELISA, monkey (macaque) IL-12 coated on the plate; antibody concentration not given [Binding to Monkey IL-12].
Assay [3] has the same target. Description: ELISA, monkey IL-12 (macaque) coated on the plate (FIG. 36A, second panel).
The target of assay [4] is 3×FLAG-IL-6 (human). In words: ELISA on plate-coated recombinant IL-6, HEK293 supernatants of chimeric IgG.
Assay [5] addresses human dimeric IL-23 (eBiosciences 34-8239) (human) (UniProt P29460+Q9NPF7). Description: SPR.

Protein sequences, listed by entry. Tags and fused reporters are not part of them. Lines headed by an entry give the natural chain unless they say otherwise; changes in a name come on top.
UniProt P48091: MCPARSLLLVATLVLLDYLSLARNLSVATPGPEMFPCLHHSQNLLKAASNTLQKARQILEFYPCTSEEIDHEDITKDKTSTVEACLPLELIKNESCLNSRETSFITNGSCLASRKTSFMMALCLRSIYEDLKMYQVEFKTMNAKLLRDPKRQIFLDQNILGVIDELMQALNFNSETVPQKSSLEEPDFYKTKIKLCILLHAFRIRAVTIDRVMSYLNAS
UniProt P48095: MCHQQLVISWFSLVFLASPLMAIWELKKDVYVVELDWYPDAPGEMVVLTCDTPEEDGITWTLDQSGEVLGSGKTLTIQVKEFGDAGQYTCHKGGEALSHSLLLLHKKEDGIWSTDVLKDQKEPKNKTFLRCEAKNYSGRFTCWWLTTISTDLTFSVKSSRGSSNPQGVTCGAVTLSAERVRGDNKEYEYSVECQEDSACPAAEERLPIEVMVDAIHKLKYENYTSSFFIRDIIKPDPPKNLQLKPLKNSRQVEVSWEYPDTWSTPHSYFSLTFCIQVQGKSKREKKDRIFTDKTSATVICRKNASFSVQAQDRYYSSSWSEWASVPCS
UniProt P29460: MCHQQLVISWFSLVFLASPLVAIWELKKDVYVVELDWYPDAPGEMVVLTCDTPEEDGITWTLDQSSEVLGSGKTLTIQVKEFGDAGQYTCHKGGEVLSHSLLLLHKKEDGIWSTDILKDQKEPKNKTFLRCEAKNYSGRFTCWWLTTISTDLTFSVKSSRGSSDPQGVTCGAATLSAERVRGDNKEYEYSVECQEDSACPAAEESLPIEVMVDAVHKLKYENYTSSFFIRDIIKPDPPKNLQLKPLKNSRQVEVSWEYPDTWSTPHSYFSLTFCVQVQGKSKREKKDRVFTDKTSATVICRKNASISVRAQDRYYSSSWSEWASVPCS
UniProt Q9NPF7: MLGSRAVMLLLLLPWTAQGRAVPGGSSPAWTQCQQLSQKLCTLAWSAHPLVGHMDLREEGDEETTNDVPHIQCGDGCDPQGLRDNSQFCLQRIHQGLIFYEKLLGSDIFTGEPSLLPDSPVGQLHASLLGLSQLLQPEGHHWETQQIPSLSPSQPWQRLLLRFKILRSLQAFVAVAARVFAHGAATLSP

No constants are given. Whether binding was seen depends on the method and setting. Some binding calls cover weakened binding; strength is not graded here.

B1: 22H8 chimeric mAb (antibody, V domains shown)
VH: QSLEESGGRLVTPGTPLTLTCTVSGFSLSTYTMNWVRQSPGKGLEWIGAISYDGGTAYANWAKGRFTISKTSTTVDLQIASPTTEDTATYFCARGFYVYAYIGDAFDPWGPGTLVTVSS
VL: AVLTQTPSPVSATVGGTVTIKCQSSQTVYKNNLLSWYQQKPGQPPKLLIYLASTLASGVPSRFSGSGSGTQFTLTISGVQCDDAATYYCLGGYDDDADTAFGGGTEVVVVR
For B1, the binding entry in assay [1], in assay [2] and in assay [3] was “binds” throughout.

B2: 18D4 chimeric mAb (antibody, V domains shown)
VH: QSVEESGGRLVTPGTPLTLTCTVSGFSLSSYAMTWVRQAPGKGLEWIGTSYVYSGDTWYASWVKGRFTISKTSTTVDLKITSPTTEDTATYFCARVGDYDDYGAHDVFDSWGPGTLVTVSS
VL: YDMTQTPASVEVAVGGTVTIKCQASESISSWLSWYQQKPGQRPKLLLYRASTLASGVSSRFSGSGYGTEFTLTISGVQCEDAATYYCQQGYTGGNVDNAFGGGTKVVVVR
As to B2, the binding entry in assay [4] is listed as “binds”.

B3: 49B7 chimeric mAb (antibody, V domains shown)
VH: QSLEESGGRLVTPGGSLTLTCTVSGIDLSDYDMSWVRQAPGKGLEWIGIVYDIGTIYYAPWAEGRFTISKTSTTVDLKMSSLTTEDTATYFCAREAPGYSDGDIWGPGTLVTVSS
VL: ALVMTQTPSSVSAAVGGTVTINCQASETVDNNKRLSWYQQKPGQPPKLLIYGAATLASGVPSRFKGSGSGAHFTLTISNVQREDAATYVCGGYKDSTDVGFGGGTELEILR
Take B3: the binding result in assay [1], in assay [2] and in assay [3] was “binds” throughout.

B4: 9H4 chimeric mAb (antibody, V domains shown)
VH: QSLEESGGRLVTPGTPLTLTCTASGFSLSSYDMSWVRQAPGKGLEWIGYIYTDTSTYYANWAKGRFSISKTSTTVDLKMTSLTAEDTATYFCAKGSTDYAFDTRLDLWGPGTLVTVSS
VL: YDMTQTPASVEVAMGGTVTIKCQASQSISNELSWYQQKPGQPPKLLIYRTSTLASGVSSRFKGSGSGTEYTLTISGVECADAATYYCQQGYNSNDVDNVFGGGTEVVVVR
With B4, the binding result in assay [4] is reported as “binds”.

B5: 31A12 humanized scFv (mammalian expressed) (scFv)
scFv: DIQLTQSPSFLSASVGDRVTITCQASEDIESYLAWYQQKPGKAPKLLIYSASTLTSGVPSRFSGSGSGTEFTLTISSLQPEDFATYYCLGADDTTTVFGGGTKVEIKGGGGSGGGGSGGGGSGGGGSEVQLVESGGGLVQPGGSLRLSCTASGFSLSSYWMTWVRQAPGKGLEWVGTIATSSTYYASWAKGRFTISRDNSKNTLYLQMNSLRAEDTAVYYCARGLTTDYDLDLWGQGTLVTVSSGPPPPHHHHHH
For the molecule B5, the binding result in assay [5] was “binds”.

B6: 8C8 chimeric mAb (antibody, V domains shown)
VH: QSVEESGGRLVAPGGSLTLTCKASGFSLSSSGVSWVRQAPGKGLEWIGYVSIADTISYANWAKGRFTISKTSSTTVDLEMTSLTTEDTATYFCVRGFITYSGVLWGPGTLVTVSS
VL: QVLTQTPASVSAAVGGTVTISCQSSQNVYSNAFLSWYQQKPGQPPKLLIYKASKLASGVPSRFSGSGSGTQFTLTISGVQCDDAATYYCAGEYEGGIGTFGGGTEVVVVR
For the molecule B6, the binding entry in assay [4] was “binds”.

B7: 9C8 chimeric mAb (antibody, V domains shown)
VH: QSVEESGGRLVTPGTPLTLTCTVSGIDLSSYDMSWVRQAPGKGLEWIGYIYTDSSTYYANWAKGRFTISKTSTTVDLKMTSLTTEDTATYFCAKGSTDYAFDTRLDLWGPGTLVTVS
VL: AYDMTQTPASVEVAMGGTVTIKCQASQSISNELSWYQQKPGQPPKLLIYRTSTLASGVSSRFKGSGSGTEYTLTISGVECADAATYYCQQGYNSNDVDNVFGGGTKVVVVR
With B7, the binding result in assay [4] is reported as “binds”.

B8: 31A12 chimeric mAb (antibody, V domains shown)
VH: QSLEESGGRLVTPGTPLTLTCTASGFSLSSYWMTWVRQAPGGGLEWIGTIATSSTYYASWAKGRFTISRTSTTVDLKMTSLTTEDTATYFCARGLTTDYDLDLWGPGTLVTVSS
VL: LVMTQTPASVSAAVGGTVTINCQASEDIESYLAWYQQKPGQRPKLLIYSASTLTSGVPSRFKGSGSGKQFTLTISGVQREDAATYYCLGADDTTTVFGGGTKVVVVR
Take B8: the binding result in assay [1], in assay [2] and in assay [3] was “binds” each time.

B9: 13A8 chimeric mAb (antibody, V domains shown)
VH: QSVEESGGRLVTPGTPLTLTCTVSGIDLSSYDMSWVRQAPGKGLEWIGYIYTDSSTWYANWAKGRFTISKTSSTTVDLKMTSLTTEDTATYFCAKGSTDYAFDTRLDLWGPGTLVTVSS
VL: NIVMTQTPSPVSGAVGGTVTINCQASQSISNELSWYQQKPGQPPRLLIYRASTLTSGVSSRFKGSGAGTQFTLTISGVECADAATYYCQQGYNSNDVDNVFGGGTKVVVVR
In the case of B9, in assay [4], the binding entry is given as “binds”.

B10: 28D2 chimeric mAb (antibody, V domains shown)
VH: QSLGESGGRLVTPGTPLTLTCTVSGLSLSKNAIAWVRQAPGKGLEWIGIIYAGGATTYASWAKGRFTISKSSTTVDLKITSPTTVDTATYFCAREYAGDSYYTGYTQLDLWGPGTLVTVSS
VL: ALVMTQTPASVSAAVGGTVTINCQASEDLFSSLAWFQQKPGQPPKLLIYSASTLASGVPSRFSGSGSGTEFTLTISDLECADAATYYCLGLYYYLTPDPIYGFGGGTKVVVV
In the case of B10, the binding result in assay [4] was “binds”.
